Source: PubChem BioAssay AID1508588 (Peter MacCallum Cancer Centre, 2020)
Screen: 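Knock-downs boosting vemurafenib effects on melanoma cell growth or lactate release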 (primary screen). System: human WM266.4 melanoma cells (BRAF V600 mutant). Reagents: siRNA pool against human genes, 40 nM. Duration: 96 h from transfection to read-out. Treatment: vemurafenib 300 nM (about IC25), added 48 h after transfection, for 48 h; comparison arm got DMSO vehicle only. Read-out: 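Cell gain (DAPI nuclei at end minus before drug, mean of two replicates) and medium lactate by absorbance per cell, both as ratio to non-targeting siRNA, also grouped into fold-change classes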. Direction: cell gain with vemurafenib: higher = more cell gain than with non-targeting siRNA; lactate per cell with vemurafenib: higher = more lactate made per cell. Hit rule: 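a knock-down counts as enhancing when its fold-change classes with vehicle and with vemurafenib, taken together, show a stronger drug effect on cell gain or lactate per cell; exact class pairs not stated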. Calls: active = enhances vemurafenib effect; inactive = no enhancement seen.
Here is an unselected part of about 18,000 reagents. Of all reagents, 790 (4.4%) got an active call. 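Calls rest on a combination of fold-change classes in drug and vehicle arms, not all shown here.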 A number with no mark means an inactive call. Reagent sequences are not shown.

gene symbol	cell gain with vemurafenib	lactate per cell with vemurafenib
TNNI3K (TNNI3 interacting kinase)	1.07	0.83
SLC41A1	0.81	0.95
PIR (pirin)	0.5	1.31
TMEM135 (transmembrane protein 135)	0.22	1.09
NRXN2 (neurexin 2)	0.57	0.55
MIR1-1HG (MIR1-1 host gene)	0.72	0.55
TEX15 (testis expressed 15, meiosis and synapsis associated)	0.6 (active)	0.38
NPM1 (nucleophosmin 1)	0.71	0.71
PYHIN1 (pyrin and HIN domain family member 1)	0.46	0.86
CTCFL (CCCTC-binding factor like)	0.68	0.57
PPP1CA (protein phosphatase 1 catalytic subunit alpha)	0.58	0.52
SMARCC2 (SWI/SNF related BAF chromatin remodeling complex subunit C2)	0.96	0.44
E4F1 (E4F transcription factor 1)	0.32	1.72
ANGPTL1 (angiopoietin like 1)	0.82	1.27
CCDC170 (coiled-coil domain containing 170)	0.68	0.94
SYTL5 (synaptotagmin like 5)	0.41	0.97
RNF38 (ring finger protein 38)	1.01	0.74
CUX2 (cut like homeobox 2)	0.24	1.84
TFDP2 (transcription factor Dp-2)	0.41	1.54
NBPF3 (NBPF member 3)	1.21	0.5
OR6C75 (olfactory receptor family 6 subfamily C member 75)	0.64	1.24
TMEM207 (transmembrane protein 207)	0.68	0.84
FKBP1A (FKBP prolyl isomerase 1A)	0.41	0.3
CT45A2 (cancer/testis antigen family 45 member A2)	0.4	1.02
SLC12A3	0.24	1.12
CMPK1 (cytidine/uridine monophosphate kinase 1)	0.37	0.89
ATP5MC1 (ATP synthase membrane subunit c locus 1)	0.47	0.88
SP1 (Sp1 transcription factor)	0.1	1.95
CFAP43 (cilia and flagella associated protein 43)	0.78	0.5
TCF15 (transcription factor 15)	1.28	0.68
TSPAN15 (tetraspanin 15)	0.85	0.85
OC90 (otoconin 90)	0.56	0.97
CRTAC1 (cartilage acidic protein 1)	0.22	1.19
MAGOH (mago homolog, exon junction complex subunit)	0.71	0.54
VKORC1L1 (vitamin K epoxide reductase complex subunit 1L1)	0.11	0.8
WDR27 (WD repeat domain 27)	0.17	1.82
EIF5A2 (eukaryotic translation initiation factor 5A2)	0.44	0.88
ARK2C	0.34	0.76
USF1 (upstream transcription factor 1)	0.62	1.34
DKK3 (dickkopf Wnt signaling pathway inhibitor 3)	0.22	0.7
TM4SF18 (transmembrane 4 L six family member 18)	0.19	0.84
LRP12 (LDL receptor related protein 12)	0.64	0.86
TRMT2B (tRNA methyltransferase 2B)	0.37	0.86
MMP28 (matrix metallopeptidase 28)	0.31	1.64
DCBLD1 (discoidin, CUB and LCCL domain containing 1)	0.58	1.07
NKX2-2 (NK2 homeobox 2)	0.67	0.61
TENT2 (terminal nucleotidyltransferase 2)	0.92	0.48
ARMCX5 (armadillo repeat containing X-linked 5)	0.04 (active)	0.3
CT47A3 (cancer/testis antigen family 47 member A3)	0.91	0.46
CYP2C18 (cytochrome P450 family 2 subfamily C member 18)	0.78	0.64
KRT10-AS1 (KRT10 antisense RNA 1)	0.57	0.8
BCL2L12 (BCL2 like 12)	0.76	1.25
SELE (selectin E)	0.45	0.71
CTF1 (cardiotrophin 1)	0.19	2.06
RNF19B (ring finger protein 19B)	1.01	0.96
SAC3D1 (SAC3 domain containing 1)	0.97	0.96
CMTM7 (CKLF like MARVEL transmembrane domain containing 7)	0.65	0.78

8 entries from above in another layout.
EIF5A2 (eukaryotic translation initiation factor 5A2)
- cell gain with vemurafenib: 0.44
- lactate per cell with vemurafenib: 0.88

ARK2C
- cell gain with vemurafenib: 0.34
- lactate per cell with vemurafenib: 0.76

USF1 (upstream transcription factor 1)
- cell gain with vemurafenib: 0.62
- lactate per cell with vemurafenib: 1.34

DKK3 (dickkopf Wnt signaling pathway inhibitor 3)
- cell gain with vemurafenib: 0.22
- lactate per cell with vemurafenib: 0.7

TM4SF18 (transmembrane 4 L six family member 18)
- cell gain with vemurafenib: 0.19
- lactate per cell with vemurafenib: 0.84

LRP12 (LDL receptor related protein 12)
- cell gain with vemurafenib: 0.64
- lactate per cell with vemurafenib: 0.86

TRMT2B (tRNA methyltransferase 2B)
- cell gain with vemurafenib: 0.37
- lactate per cell with vemurafenib: 0.86

MMP28 (matrix metallopeptidase 28)
- cell gain with vemurafenib: 0.31
- lactate per cell with vemurafenib: 1.64
